Assay results reported in article PMC7857730.
These are yes or no findings as the source states them, for the method shown. In cells and extracts the contact can be indirect. Some binding calls cover weakened binding; strength is not graded here. Where a sequence is shown, tags or fusion partners need not be part of it.

Biological target: T1, Gtr1-FLAG (S. pombe) (UniProt O74824)
T1 sequence: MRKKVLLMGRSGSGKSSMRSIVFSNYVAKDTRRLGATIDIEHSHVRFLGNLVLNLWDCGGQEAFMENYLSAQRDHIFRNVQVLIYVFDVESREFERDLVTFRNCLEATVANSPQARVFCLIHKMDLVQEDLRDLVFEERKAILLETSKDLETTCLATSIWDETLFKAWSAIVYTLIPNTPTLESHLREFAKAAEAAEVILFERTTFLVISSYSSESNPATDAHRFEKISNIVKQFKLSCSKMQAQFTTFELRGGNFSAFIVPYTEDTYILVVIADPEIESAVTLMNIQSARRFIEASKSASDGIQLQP
Assay: co-IP

- binding: binds
B1: Iml1-myc (protein, UniProt O74788 1-1496)
chain: MAITLNLWTHESSLFPNDAVLNYDLVPSAKPGDIFEIRAQNGDEIALQHNHSSTGKLHAKREKEPVYLMPSPLTDDLKRRHPNLQLSVVSHISSLLNIKNREPVVVKICEDKTNLEAEHVVIFFRDQFISRSDMWKLFRELCGKCVYLKQRVSFIGDVPGEIRCIWRKGKKCHSAYISERTKPIFRSESARFLIFIQMSEEMWHFEEDGELNYNKAIDGFLPDLFSFWRDLGTHHLVSIILFTRVEYSHHGPMCVWQPRSQKNSEKGSSIYPQNSFNASIDNEGGPYEDFFKVVVDNVSSRDWQPVLANLKLELAKFRQDVIVRKIKDENGREIEYICGRMTGSQEGNFLEVINMAVFQFQSDYIDRDLSRTGTSIIIVTPGTGLYEVNEKMLHLTSKSLLNTVVGMDIVSLGKVPLFLTPIVRYKNPVKNKKRSQLTSRISSSVSPSNVIPNSLTSSVSNFSVSSFLNNLKEDTEWLYTFPIGCNISFYSTTEMRSLRSPWENLMREHQFEPTAKMHELQMMGVLEAESAKISIPLLQSDPLLKGSVFSEEVQEDYDERQFTGEAAVSANDVLSSSSPRHFSSHTPVNVDKSSYLEMNGHSLSTVISGKESISSFGAKVDDLKSTSKESARQFGKSALTERLQKLAGNSSNVSSSLQTSSSNKSSLLTKKSSFPALLKGFLALPATVTTSANPLGFKSTIQRPIPIKNNEDSDSCKAFSQAPPIATKKPPTFLKPNSPEYAKTVIPKSSTNLENEYQTPWKIIQNPFKLKETTADNDPVSLRWEHLYMKVQDVRKFNWLSMCTPGALPLTFSYFPSEEELNDKFEEYTYTIGIDPEFTQMNQQELLAEMICQRLSRGYQIVVNPAAAVSYSGNPKANKAGTITDFSRSVNNQRNGHLTVGSDAVCLSLGDSQFHRLSCDSVGYNIEVKRYVKKVSGQGKMRYDYNFWSKNECKYVKSNITFSANDSANYNWNYVDQLICGFETYLPDSVKYWRARFVLLPMSTTSTHVFQKYQLLDHADALSDEEFRVEGIYKLSELLYKGKIDPMNDSNNKTPNTSPAELLGIKFTTLPMAQYIHSELEALRLDSSRNEQSLFMPNKRLDCSADLHTIAKEIQGPGGPKIDDITWHYRIYENCFLGSEFVSWLANTFIGINTREEALKYGNKLLSLGLFDHALKKHPLLDGYYVYRISPDYSIKPVSNRPYRSWFSRKKDSGQKHLDNKIITESEAGPSRLELSRRILFNADVEKKNGKSETVTVHYDLLHNPASCYHIRIEWLLATASVIEKLLQSWSRILERYGLKLVEAPIHEIAAVGELNPFDQVSIISLALDPPPIPERAPLVNDPVNYSKNWWNVKILEHFDFILDTEAASTFPKSITAVYSWGKPNFRYVQYIHRTGTVLVQIDDDQRFLWLPNRLHNSKVSKLSFTKSNKSTLNPNLKETAEELERKFREFCSNKDELDQFYGIVNHASDDRRSIYSSASTHASNASADDASNVNV
